Measured values taken from paper PMC10809841, “Transferrin Is Up-Regulated by Microbes and Acts as a Negative Regulator of Immunity to Induce Intestinal Immunotolerance” (Research, 2024).
These are yes or no findings as the source states them, for the method shown. For part of these data: In cells and extracts the contact can be indirect. Some results given as binding are weak or reduced against the parent protein; the word gives no strength.

Protein sequences, listed by entry. Tags and fused reporters are not part of them. Residues count along the entry.
UniProt P02787, residues 20-698: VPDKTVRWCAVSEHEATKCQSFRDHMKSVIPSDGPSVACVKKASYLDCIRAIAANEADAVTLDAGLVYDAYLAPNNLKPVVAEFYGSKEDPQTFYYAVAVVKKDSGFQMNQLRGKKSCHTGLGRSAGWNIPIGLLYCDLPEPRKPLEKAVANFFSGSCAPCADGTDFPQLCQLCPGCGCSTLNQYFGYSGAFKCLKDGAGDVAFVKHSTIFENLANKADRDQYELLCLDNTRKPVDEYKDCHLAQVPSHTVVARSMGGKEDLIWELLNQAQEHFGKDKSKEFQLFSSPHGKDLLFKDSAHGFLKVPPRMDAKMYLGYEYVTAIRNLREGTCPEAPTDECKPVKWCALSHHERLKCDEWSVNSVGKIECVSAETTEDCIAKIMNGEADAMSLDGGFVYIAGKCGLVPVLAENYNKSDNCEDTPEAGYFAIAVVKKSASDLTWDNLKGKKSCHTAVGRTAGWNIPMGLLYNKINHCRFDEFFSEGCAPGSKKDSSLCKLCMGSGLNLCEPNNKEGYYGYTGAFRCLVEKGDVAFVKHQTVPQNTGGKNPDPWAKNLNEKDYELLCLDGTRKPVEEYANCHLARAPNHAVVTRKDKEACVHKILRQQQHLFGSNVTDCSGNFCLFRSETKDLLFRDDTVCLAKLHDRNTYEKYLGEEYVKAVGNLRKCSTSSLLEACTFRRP

Assays:
transferrin [1] = target: T1, transferrin (UniProt P02787 20-698); experiment: native gel or EMSA; native-polyacrylamide gel electrophoresis, gel shift of the transferrin-CD14 complex; both purified
T1 construct: transferrin (serotransferrin), the iron transporter of serum; probably the mature plasma protein; also called Tf; WT-Tf

[2] = target: transferrin (in human PBMCs and primary macrophages) (human (in PBMCs and primary macrophages)) (UniProt P02787); experiment: co-IP; coimmunoprecipitation of transferrin and CD14 in primary macrophages
transferrin [3] = target: T1, transferrin; experiment: SPR; BIAcore 2000; transferrin coupled at a CM5 sensor chip, CD14 flowed over; details in the Supplementary Materials (not shown); both purified

B1: cluster of differentiation 14 (CD14) (receptor, UniProt P08571 20-345, looked up)
chain: TTPEPCELDDEDFRCVCNFSEPQPDWSEAFQCVSAVEVEIHAGGLNLEPFLKRVDADADPRQYADTVKALRVRRLTVGAAQVPAQLLVGALRVLAYSRLKELTLEDLKITGTMPPLPLEATGLALSSLRLRNVSWATGRSWLAELQQWLKPGLKVLSIAQAHSPAFSCEQVRAFPALTSLDLSDNPGLGERGLMAALCPHKFPAIQNLALRNTGMETPTGVCAALAAAGVQPHSLDLSHNSLRATVNPSAPRCMWSSALNSLNLSFAGLEQVPKGLPAKLRVLDLSCNRLNRAPQPDELPEVDNLTLDGNPFLVPGTALPHEGSMN
notes: CD14, TLR coreceptor; isolated protein used in SPR and native gel; Probably a soluble recombinant CD14; also called WT-CD14; wild-type CD14
For B1, the binding (transferrin [1]) was “binds”.

B2: CD14 (in human PBMCs and primary macrophages) (receptor, UniProt P08571 20-345)
chain: B1 chain
For B2, the binding [2] was “binds”.

In the case of ELDDEDFRCVCNFSEPQPDWSEAFQCVSAVEVEIHAGGLN [LPS binding region of CD14 N-terminus (CD14N)], the binding (transferrin [3]) is reported as “binds”.
